# Results are given in words; binding and its absence hold for the method and conditions named. Some entries that bind do so weakly or less than the wild type. Tags and fused reporters may be left off the sequences shown.
# By UniProt entry, the sequences of proteins in these tests, tags left out. Where a name states a change or a piece, a line headed by the entry shows the natural chain unless it says otherwise.
# UniProt P0A7C2: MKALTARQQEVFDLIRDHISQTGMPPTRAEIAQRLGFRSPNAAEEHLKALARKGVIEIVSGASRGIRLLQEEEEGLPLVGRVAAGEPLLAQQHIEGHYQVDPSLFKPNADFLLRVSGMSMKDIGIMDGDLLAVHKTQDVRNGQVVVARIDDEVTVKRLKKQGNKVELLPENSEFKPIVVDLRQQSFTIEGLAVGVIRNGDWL
# UniProt P93002: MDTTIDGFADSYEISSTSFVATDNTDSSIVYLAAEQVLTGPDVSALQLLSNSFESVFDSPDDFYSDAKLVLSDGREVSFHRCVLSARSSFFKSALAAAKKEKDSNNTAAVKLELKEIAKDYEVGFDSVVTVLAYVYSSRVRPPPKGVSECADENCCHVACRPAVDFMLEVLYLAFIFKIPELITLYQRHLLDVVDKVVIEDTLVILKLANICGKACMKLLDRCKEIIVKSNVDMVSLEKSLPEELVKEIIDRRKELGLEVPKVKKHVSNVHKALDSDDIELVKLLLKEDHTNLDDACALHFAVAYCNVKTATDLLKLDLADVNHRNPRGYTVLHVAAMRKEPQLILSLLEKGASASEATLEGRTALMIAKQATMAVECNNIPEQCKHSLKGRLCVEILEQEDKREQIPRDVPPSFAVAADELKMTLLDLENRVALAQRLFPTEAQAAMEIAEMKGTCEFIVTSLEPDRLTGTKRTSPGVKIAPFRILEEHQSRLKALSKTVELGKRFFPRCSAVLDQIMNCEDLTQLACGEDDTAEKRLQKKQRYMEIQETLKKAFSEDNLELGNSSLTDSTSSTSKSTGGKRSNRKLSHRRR
# B1: NI16 clone (Arabidopsis NI16 cDNA clone from the pJG4-5 library, fused to the B42 transcriptional activation domain) (other, not shown: large carriers)
# chain: MNNSLKKEERVEEDNGKSDGNRGKPSTEVVRTVTEEEVDEFFKILRRVHVATRTVAKVNGGVAEGELPSKKRKRSQNLGLRNSLDCNGVRDGEFDEINRVGLQGLGLDLNCKPEPDSVSLSL
# notes: Prey of the yeast two-hybrid screen; also called NI16 protein
# B2: NI19 clone (Arabidopsis NI19 cDNA clone from the pJG4-5 library, fused to the B42 transcriptional activation domain) (protein, not shown: large carriers)
# chain: KKRQEEEERARVRRFPSFQPEDFIFMNKAEANNIEKAANESSSASNEYDGSKEKQEGSETNVCLDLNLSL
# Legend:
# [1] = biological target: NIM366-594 bait (C-terminal portion of NIM1, amino acids 366-594, fused to the LexA DNA binding domain) (Arabidopsis) (UniProt P0A7C2+P93002); assay: yeast two-hybrid screen (LexA bait, B42 prey library; Leu2 and LacZ reporters)
# [2] = biological target: full-length NIM1 bait (full length Arabidopsis NIM1 fused to the LexA DNA binding domain in pEG202) (Arabidopsis) (UniProt P0A7C2+P93002); assay: as above
# [3] = biological target: NIM1 bait of the two-hybrid screen (which of the three baits is not stated) (Arabidopsis) (UniProt P0A7C2+P93002); assay: yeast two-hybrid screen (LexA bait, B42 prey library; Leu2 and LacZ reporters); bait not specified
Binder,binding [1],binding [2],binding [3]
B1,binds,binds,–
B2,–,–,binds
